According to article PMC13239758:
No constants are given. Whether binding was seen depends on the method and setting. In cells and extracts the contact can be indirect. A result given as binding can be weak or reduced; the word gives no strength. Tags and fused reporters may be left off the sequences shown.

Target: T1, GFP-CD63 full length (UniProt P41731)
T1 sequence: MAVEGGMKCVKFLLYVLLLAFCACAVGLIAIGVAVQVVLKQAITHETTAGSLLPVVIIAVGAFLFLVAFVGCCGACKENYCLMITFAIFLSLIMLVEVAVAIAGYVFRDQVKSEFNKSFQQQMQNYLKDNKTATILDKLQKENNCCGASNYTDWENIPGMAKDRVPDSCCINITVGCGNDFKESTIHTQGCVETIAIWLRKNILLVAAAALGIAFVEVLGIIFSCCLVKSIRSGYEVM
Assay: co-IP; HEK293T cells co-transfected with GFP-CD63 (full length or truncates) and Flag- or Myc-tagged NLRP3 or ASC constructs; lysed after 36 h, IP with 1 μg Flag, GFP or Myc antibody, immunoblot

## Flag–NBD (nucleotide-binding domain of NLRP3) (domain or fragment)
  binding: binds
